The test system of assay [1] is most sensitive cancer cell lines. Put plainly: Cell based proliferation assay (alamar blue assay), cancer cell lines. Conditions: read-out: IC50 in the most sensitive cancer cell lines.
The subject of a further assay is DMS114 cells. Put plainly: Incucyte proliferation (% confluence over time), DMS114 cells, long-term treatment. In kind it is cell-based. Conditions: compound A 1 microM, BMS-754807 300 nM, GSK1838705A 1 microM, each alone.

A value given as a limit tells only on which side of the number the result lay.

Turning to `COc1cc(OC)cc(N(CCNC(C)C)c2ccc3ncc(-c4cnn(C)c4)nc3c2)c1` [compound A], in assay [1], the IC50 was less than 10 nM. Moreover, in the assay with DMS114 cells, the “proliferation (% confluence over time), single agent” value was “initially blocked the proliferation, but after two-three weeks emerging outgrowth of compound insensitive cells was observed”.

These data come from patent publication US10736900B2, “Combinations of an FGFR inhibitor and an IGF1R inhibitor” (ASTEX THERAPEUTICS LTD, priority 2014, dated 2020).
